Measurements reported in PubChem BioAssay AID493246 (Drosophila RNAi Screening Center, 2011)

Screen: 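Genes fly cells need to grow and stay alive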 (primary screen)
System: Drosophila Kc and S2R+ cells
Reagents: long dsRNA against Drosophila genes
Measured: 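Raw, unnormalised count of remaining cells in each well; per-plate z-scores of cell number underlie the calls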
Scale: Kc cell number and S2R+ cell number: higher = more cells remaining
Rule for the call: 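Active when the per-plate z-score of cell number is 3 or more in the direction of fewer cells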
The screen tested about 21,000 reagents; below is a random part of those that have a named target and a result. Over the whole deposit, 429 (2%) got an active call. 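Values are raw and not normalised between plates; calls rest on per-plate z-scores that were not deposited.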 A plus sign joins genes that one reagent is predicted to hit. The record does not give: the amount of reagent, the time to read-out.

target,amplicon,"Kc cell number, rep 1","Kc cell number, rep 2","S2R+ cell number, rep 1","S2R+ cell number, rep 2",activity call
CG17564 (GeneID 35205),DRSC02626,1.67e6,1.80e6,1.40e6,4.15e5,inactive
rho (GeneID 38168),DRSC08734,1.60e6,1.55e6,1.01e6,1.16e6,inactive
UGP + PGRP-LF,DRSC10418,1.60e6,1.64e6,1.28e6,1.42e6,inactive
Art8 (GeneID 34528),DRSC02530,1.51e6,1.60e6,1.21e6,1.32e6,inactive
Mst84Db (GeneID 40888),DRSC12542,1.50e6,1.63e6,1.33e6,1.37e6,inactive
Mst84Db (GeneID 40888),DRSC12598,1.46e6,1.61e6,1.26e6,1.33e6,inactive
ppk6 (GeneID 37286),DRSC06062,1.66e6,1.71e6,1.21e6,1.35e6,inactive
CG30015 (GeneID 36147),DRSC05241,1.45e6,1.44e6,1.03e6,1.11e6,inactive
CG30015 (GeneID 36147),DRSC07027,1.39e6,1.39e6,1.17e6,1.23e6,inactive
CG30015 (GeneID 36147),DRSC07028,1.68e6,1.64e6,1.42e6,1.55e6,inactive
Mlf (GeneID 36750),DRSC07472,1.67e6,1.67e6,8.86e5,9.65e5,inactive
Fkbp12 (GeneID 37214),DRSC07425,1.51e6,1.58e6,1.16e6,1.24e6,inactive
Cp110 (GeneID 33136),DRSC20630,1.49e6,1.54e6,1.06e6,1.21e6,inactive
CG14740 (GeneID 41468),DRSC14960,1.49e6,1.57e6,1.31e6,1.33e6,inactive
CG8420 (GeneID 41097),DRSC16418,1.76e6,1.94e6,1.24e6,1.44e6,inactive
gogo (GeneID 40225),DRSC10070,1.53e6,1.73e6,1.06e6,1.16e6,inactive
gogo (GeneID 40225),DRSC10071,1.46e6,1.62e6,1.22e6,1.34e6,inactive
Herc4 (GeneID 38151),DRSC08631,1.71e6,1.65e6,1.01e6,1.44e6,inactive
Sce (GeneID 43327),DRSC16825,5.06e5,,7.30e5,,inactive
Prp40 (GeneID 33513),DRSC00612,1.26e6,1.32e6,5.67e5,7.48e5,inactive
sip3 (GeneID 43747),DRSC15402,5.38e5,,8.18e5,,inactive
Dnali1 (GeneID 41440),DRSC16158,1.60e6,1.65e6,1.34e6,1.34e6,inactive
eEF1beta (GeneID 45249),DRSC07419,1.39e6,1.44e6,1.18e6,1.27e6,inactive
CG15553 (GeneID 43677),DRSC15091,1.71e6,1.76e6,1.09e6,1.27e6,inactive
CG8087 (GeneID 41764),DRSC16375,1.50e6,1.61e6,1.18e6,1.25e6,inactive
goe (GeneID 32660),DRSC19345,1.54e6,1.47e6,1.13e6,1.10e6,inactive
CG11262 (GeneID 39471),DRSC09831,1.27e6,1.30e6,1.29e6,1.44e6,inactive
Dip-C (GeneID 47769),DRSC15855,1.47e6,1.54e6,1.35e6,1.39e6,inactive
Rh4 + sina,DRSC11396,1.51e6,1.58e6,1.25e6,1.26e6,inactive
CG3225 (GeneID 33680),DRSC00578,1.22e6,1.31e6,7.40e5,7.32e5,inactive
CG6357 (GeneID 36532),DRSC06979,1.40e6,1.47e6,1.08e6,1.17e6,inactive
CG3776 (GeneID 37996),DRSC04417,1.42e6,1.44e6,1.13e6,1.13e6,inactive
CG14837 (GeneID 38849),DRSC10207,1.59e6,1.52e6,1.23e6,1.24e6,inactive
CG15443 (GeneID 33656),DRSC00455,1.73e6,1.75e6,1.28e6,1.50e6,inactive
side-VII (GeneID 41184),DRSC14578,1.52e6,1.59e6,1.26e6,1.37e6,inactive
Pdp (GeneID 31683),DRSC17825,5.73e5,,9.09e5,,inactive
CG5921 (GeneID 31538),DRSC17431,1.20e6,1.42e6,1.11e6,1.19e6,inactive
CG5921 (GeneID 31538),DRSC18390,1.51e6,1.51e6,1.08e6,1.24e6,inactive
CG6428 (GeneID 31351),DRSC18402,1.48e6,1.48e6,9.97e5,1.13e6,inactive
CG14270 (GeneID 31319),DRSC17913,1.45e6,1.48e6,1.10e6,1.23e6,inactive
Cpr72Ec (GeneID 39816),DRSC10449,1.55e6,1.62e6,1.36e6,1.42e6,inactive
CG2961 (GeneID 31954),DRSC18246,1.58e6,1.52e6,1.15e6,1.30e6,inactive
Sfp26Ad (GeneID 8673981),DRSC00904,1.38e6,1.48e6,9.97e5,1.15e6,inactive
CG7120 (GeneID 38954),DRSC10773,1.54e6,1.47e6,1.23e6,1.27e6,inactive
Tbh (GeneID 31718),DRSC18723,1.49e6,1.48e6,1.04e6,1.09e6,inactive
TpnC47D (GeneID 36195),DRSC07564,1.59e6,1.63e6,1.18e6,1.32e6,inactive
Naxd (GeneID 40085),DRSC09722,1.57e6,1.55e6,1.33e6,1.50e6,inactive
scramb2 (GeneID 38362),DRSC08543,1.43e6,1.33e6,1.14e6,1.43e6,inactive
Ns2 (GeneID 36989),DRSC06993,1.16e6,1.30e6,1.02e6,9.71e5,inactive
CG32793 (GeneID 31280),DRSC18145,1.47e6,1.50e6,1.04e6,1.14e6,inactive
CG32793 (GeneID 31280),DRSC18194,1.42e6,1.46e6,1.03e6,1.12e6,inactive
AIMP3 (GeneID 246507),DRSC04500,1.60e6,1.71e6,1.34e6,1.36e6,inactive
CG2211 (GeneID 38157),DRSC08559,1.30e6,1.30e6,9.65e5,1.17e6,inactive
Pi4KIIalpha (GeneID 40670),DRSC12322,1.44e6,1.56e6,1.20e6,1.25e6,inactive
Pi4KIIalpha (GeneID 40670),DRSC12323,1.50e6,1.81e6,1.22e6,1.32e6,inactive
Dh44-R2 (GeneID 36368),DRSC06141,1.63e6,1.62e6,1.24e6,1.38e6,inactive
Dh44-R2 (GeneID 36368),DRSC06281,1.75e6,1.70e6,1.21e6,1.38e6,inactive
CG9107 (GeneID 33843),DRSC03138,1.32e6,1.62e6,4.75e5,1.95e5,inactive
Ama (GeneID 40831),DRSC12489,1.59e6,1.67e6,1.27e6,1.29e6,inactive
